Laboratory results reported in article PMC10501387.
No constants are given. Whether binding was seen depends on the method and setting. In cells and extracts the contact can be indirect. Where a sequence is shown, tags or fusion partners need not be part of it.

Protein sequences, listed by entry. Tags and fused reporters are not part of them. Lines headed by an entry give the natural chain unless they say otherwise; changes in a name come on top.
UniProt P15116: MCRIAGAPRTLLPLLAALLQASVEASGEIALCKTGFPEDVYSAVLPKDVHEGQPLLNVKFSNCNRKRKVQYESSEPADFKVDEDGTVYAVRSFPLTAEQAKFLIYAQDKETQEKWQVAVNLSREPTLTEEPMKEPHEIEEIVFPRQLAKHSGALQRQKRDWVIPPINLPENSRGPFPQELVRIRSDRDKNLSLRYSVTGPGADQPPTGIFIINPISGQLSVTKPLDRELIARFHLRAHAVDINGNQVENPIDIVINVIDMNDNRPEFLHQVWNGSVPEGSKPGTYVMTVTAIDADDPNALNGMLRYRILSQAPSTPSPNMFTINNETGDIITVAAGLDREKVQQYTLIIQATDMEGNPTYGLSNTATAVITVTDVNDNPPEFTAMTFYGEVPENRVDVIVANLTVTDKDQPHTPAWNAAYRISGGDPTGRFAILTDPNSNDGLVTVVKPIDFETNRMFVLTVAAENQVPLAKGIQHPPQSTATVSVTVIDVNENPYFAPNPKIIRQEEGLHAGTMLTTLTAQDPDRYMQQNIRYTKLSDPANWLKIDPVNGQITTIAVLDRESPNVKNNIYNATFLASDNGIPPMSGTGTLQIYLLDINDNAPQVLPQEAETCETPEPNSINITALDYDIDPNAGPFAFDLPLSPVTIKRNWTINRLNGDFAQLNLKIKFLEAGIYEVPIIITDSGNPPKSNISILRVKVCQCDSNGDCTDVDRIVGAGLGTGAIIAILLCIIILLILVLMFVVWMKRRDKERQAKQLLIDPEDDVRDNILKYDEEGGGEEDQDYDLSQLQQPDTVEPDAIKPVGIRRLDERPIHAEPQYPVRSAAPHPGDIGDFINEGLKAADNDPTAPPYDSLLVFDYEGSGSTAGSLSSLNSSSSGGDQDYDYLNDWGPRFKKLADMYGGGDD

Molecular target: T1, human δ-catenin with a C-terminus HA tag (δ-catenin-HA), wild type (human) (UniProt Q9UQB3)
T1 sequence: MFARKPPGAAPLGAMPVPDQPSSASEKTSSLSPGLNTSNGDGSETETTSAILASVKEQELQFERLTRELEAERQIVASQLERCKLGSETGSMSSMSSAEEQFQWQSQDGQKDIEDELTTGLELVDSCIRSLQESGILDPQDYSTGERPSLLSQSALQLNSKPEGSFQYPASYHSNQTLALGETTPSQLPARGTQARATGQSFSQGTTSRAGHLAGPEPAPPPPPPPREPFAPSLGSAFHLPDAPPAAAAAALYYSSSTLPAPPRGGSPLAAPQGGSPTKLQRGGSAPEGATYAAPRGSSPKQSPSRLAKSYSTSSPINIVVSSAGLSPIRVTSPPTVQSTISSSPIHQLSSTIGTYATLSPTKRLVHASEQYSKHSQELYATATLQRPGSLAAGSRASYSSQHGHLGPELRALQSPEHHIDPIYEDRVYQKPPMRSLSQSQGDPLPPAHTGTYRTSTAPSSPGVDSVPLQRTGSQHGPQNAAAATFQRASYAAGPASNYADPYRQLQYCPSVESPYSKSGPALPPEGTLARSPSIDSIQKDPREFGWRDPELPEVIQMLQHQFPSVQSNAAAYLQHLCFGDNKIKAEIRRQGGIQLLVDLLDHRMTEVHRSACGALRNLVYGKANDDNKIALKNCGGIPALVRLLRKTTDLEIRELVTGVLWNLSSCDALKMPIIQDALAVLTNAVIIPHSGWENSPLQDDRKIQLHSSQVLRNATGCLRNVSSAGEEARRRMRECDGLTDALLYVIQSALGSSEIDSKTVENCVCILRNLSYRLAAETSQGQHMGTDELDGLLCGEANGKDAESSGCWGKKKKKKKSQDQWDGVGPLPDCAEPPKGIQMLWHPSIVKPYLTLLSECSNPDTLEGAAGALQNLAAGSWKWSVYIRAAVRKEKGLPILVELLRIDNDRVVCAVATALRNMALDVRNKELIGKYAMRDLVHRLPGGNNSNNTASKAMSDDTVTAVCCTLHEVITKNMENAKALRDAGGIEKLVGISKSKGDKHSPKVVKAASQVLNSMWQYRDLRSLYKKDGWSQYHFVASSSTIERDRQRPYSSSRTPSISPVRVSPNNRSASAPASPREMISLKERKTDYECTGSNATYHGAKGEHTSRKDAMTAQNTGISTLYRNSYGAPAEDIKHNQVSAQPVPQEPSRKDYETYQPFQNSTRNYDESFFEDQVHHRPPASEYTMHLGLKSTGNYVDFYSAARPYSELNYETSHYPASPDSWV
Assay: co-IP; HEK293T cells co-transfected with δ-catenin-HA and GFP-tagged N-cadherin; lysate (25 mM Hepes, 150 mM KCl, 1.5 mM MgCl2, 10% glycerol, 0.5% NP-40) incubated with anti-HA magnetic beads 2 h at 4°C; blot with anti-GFP and anti-HA

With “N-cadherinΔJMD-GFP (from UniProt P15116)” the binding was “no binding”.
